# Reference: US20220305129A1, “CONJUGATES OF HETEROAROMATIC NITROGEN-COMPRISING COMPOUNDS” (Ascendis Pharma A/S, priority 2019, published 2022)
# Assay: In vitro release kinetics: cleavage rate of the reversible bond in aqueous buffer
# Assay type: physicochemical
# Conditions: pH 7.4, 37° C.
# Experimental: The cleavage rate of the reversible bond from conjugates 6, 10 and 11 was monitored at pH 7.4 and 37° C. in aqueous buffer (pH 7.4 48 mM sodium phosphate, 20% acetonitrile). The disappearance of the conjugate was determined by LCMS (UV detection) and fitted with curve fitting software to obtain the half-life of the release.
row,SMILES,Released product
1,CCOC(c1ccccc1)n1cnc2ccccc21 (stereo not drawn) [Compound 6],1H-benzo[d]imidazole
2,CCOC(c1ccc(CC(=O)O)cc1)n1cnc2ccccc21 (stereo not drawn) [Compound 10],1H-benzo[d]imidazole
3,CCOC(c1ccccc1)n1ncc2ccccc21 (stereo not drawn) [Compound 11],indazole
